PubChem BioAssay AID686943 | Drosophila RNAi Screening Center | 2013
The deposit covers about 23,000 reagents; below is a random part of those with a known target gene and a result. 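Extra replicates exist only for a retested subset of genes; insulin dose and duration not given; both raised and lowered dpERK matter.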 A plus sign joins genes that one reagent is predicted to hit. Further read-outs or replicates are left out here. Not given: the amount of reagent, the time to read-out.

Assay: 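Knockdowns that increase or decrease active ERK after insulin receptor stimulation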 (primary screen)
Cell system: Drosophila S2R+ haemocyte-like cells expressing YFP-tagged ERK (Rolled)
Reagents: long dsRNA against Drosophila genes
Conditions: insulin stimulation versus unstimulated cells; dose and duration not given
Detection: 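Per-plate z-scores of phospho-ERK immunostaining normalised to YFP-tagged ERK, measured with and without insulin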
Direction: replicate 1, z-score of dpERK with insulin and replicate 2, z-score of dpERK with insulin: higher = more active ERK per ERK-YFP after insulin; replicate 1, z-score of dpERK under basal conditions: higher = more basal active ERK per ERK-YFP

gene knocked down | DRSC id | replicate 1, z-score of dpERK with insulin | replicate 2, z-score of dpERK with insulin | replicate 1, z-score of dpERK under basal conditions
Cog6 | DRSC06806 | 0.54 | 0.27 | 1.06
CG4860 | DRSC15664 | 0.32 | 0.75 | -0.09
CG4860 | DRSC21755 | 0.91 | 0.93 | -0.75
CG15022 | DRSC08476 | -2.81 | -1.55 | 0.73
CG13609 | DRSC14612 | 1.54 | 0.08 | -0.24
CG13609 | DRSC22843 | 1.03 | 0.85 | -0.64
CG14803 | DRSC18556 | 0.17 | 1.42 | -1.2
CG17378 | DRSC02616 | 0.72 | 0.2 | 0.01
CG11200 | DRSC06060 | 0.69 | 0.19 | 0.48
MED10 | DRSC10474 | 1.26 | 0.92 | -0.9
Bin1 | DRSC16843 | 0.62 | 0.48 | 0.23
CG4734 | DRSC06885 | 1.82 | 0.22 | 0.94
CG4734 | DRSC22072 | 0.71 | 0.18 | -0.69
CG42582 (retired record) | DRSC20675 | -0.88 | -0.48 | -0.69
Lipt1 + CG42837 | DRSC07183 | -0.13 | -0.19 | 0.43
CG11279 | DRSC09837 | 0.17 | -0.06 | -0.61
Tti1 | DRSC15163 | -0.26 | 0.51 | -0.02
CG15514 | DRSC15053 | -0.2 | 0.35 | -0.81
nebu | DRSC09807 | 2.22 | 1.66 | -0.59
nebu | DRSC09808 | 0.18 | 0.07 | 0.01
CG8773 | DRSC16444 | 1.1 | -0.92 | 0.07
CG13676 | DRSC10035 | -0.49 | -0.19 | 0.19
CG18754 | DRSC15387 | 1.14 | 0.9 | 2.84
SmydA-3 | DRSC02565 | -0.89 | -0.45 | 0.15
SmydA-3 | DRSC02566 | 0.13 | 0.77 | 0.85
l(2)41Ab | DRSC21007 | 0.38 | -1.35 | 0.8

Reformatted: 7 of the entries above.
CG4860 [DRSC21755]
- replicate 1, z-score of dpERK with insulin: 0.91
- replicate 2, z-score of dpERK with insulin: 0.93
- replicate 1, z-score of dpERK under basal conditions: -0.75

CG15022 [DRSC08476]
- replicate 1, z-score of dpERK with insulin: -2.81
- replicate 2, z-score of dpERK with insulin: -1.55
- replicate 1, z-score of dpERK under basal conditions: 0.73

CG13609 [DRSC14612]
- replicate 1, z-score of dpERK with insulin: 1.54
- replicate 2, z-score of dpERK with insulin: 0.08
- replicate 1, z-score of dpERK under basal conditions: -0.24

CG13609 [DRSC22843]
- replicate 1, z-score of dpERK with insulin: 1.03
- replicate 2, z-score of dpERK with insulin: 0.85
- replicate 1, z-score of dpERK under basal conditions: -0.64

CG14803 [DRSC18556]
- replicate 1, z-score of dpERK with insulin: 0.17
- replicate 2, z-score of dpERK with insulin: 1.42
- replicate 1, z-score of dpERK under basal conditions: -1.2

CG17378 [DRSC02616]
- replicate 1, z-score of dpERK with insulin: 0.72
- replicate 2, z-score of dpERK with insulin: 0.2
- replicate 1, z-score of dpERK under basal conditions: 0.01

CG11200 [DRSC06060]
- replicate 1, z-score of dpERK with insulin: 0.69
- replicate 2, z-score of dpERK with insulin: 0.19
- replicate 1, z-score of dpERK under basal conditions: 0.48

The list goes on.
gene knocked down | DRSC id | replicate 1, z-score of dpERK with insulin | replicate 2, z-score of dpERK with insulin | replicate 1, z-score of dpERK under basal conditions
Femcoat | DRSC18061 | 0.27 | 0.63 | 1.02
CG31643 | DRSC00906 | 0.3 | 1.24 | -0.1
Dera | DRSC07207 | 0.42 | 0.29 | 0.09
Dera | DRSC21336 | -0.78 | 0.7 | -0.39
ci | DRSC17172 | -0.11 | -0.08 | 0.31
CG8399 | DRSC07163 | -0.28 | -1.15 | 0.54
Su(var)3-3 | DRSC10250 | -0.21 | 0.15 | 0.35
Ir92a | DRSC15111 | 0.26 | -2.52 | -0.71
CR33221 | DRSC21201 | 0.25 | 0.83 | 0.42
CG13398 | DRSC02268 | 0.3 | -0.07 | 0.04
CG14882 | DRSC15006 | 0.09 | -0.11 | 0.12
DCTN3-p24 | DRSC04592 | -0.4 | -0.08 | -0.02
CG14864 | DRSC14987 | -0.21 | -0.74 | -0.82
